The series is described as follows: Cmax after IV injection of 1 mg DSP in rabbit. The class given is in vivo.

Each structure is given as a SMILES string.

Consider `C[C@@H]1C[C@H]2[C@@H]3CCC4=CC(=O)C=C[C@]4(C)[C@@]3(F)[C@@H](O)C[C@]2(C)[C@@]1(O)C(=O)COP(=O)(O)O` [DSP, Dexamethasone sodium phosphate], for which the “Cmax of DSP for rabbit relative to human” value is given as “approximately 75 times”.

These data come from patent publication US20190216830A1, “OPHTHALMIC COMPOSITIONS” (Aciont Inc., priority 2017, published 2019).
